Drawing on ChEMBL document CHEMBL1641566, “N-(Pyridin-3-yl)benzamides as selective inhibitors of human aldosterone synthase (CYP11B2)” (Bioorg Med Chem Lett, 2011), this text covers inhibition for 1 compound.

Series [1] has as its target T1, Cytochrome P450 11B2, mitochondrial (Homo sapiens, UniProt P19099).
T1 sequence (P19099 whole entry): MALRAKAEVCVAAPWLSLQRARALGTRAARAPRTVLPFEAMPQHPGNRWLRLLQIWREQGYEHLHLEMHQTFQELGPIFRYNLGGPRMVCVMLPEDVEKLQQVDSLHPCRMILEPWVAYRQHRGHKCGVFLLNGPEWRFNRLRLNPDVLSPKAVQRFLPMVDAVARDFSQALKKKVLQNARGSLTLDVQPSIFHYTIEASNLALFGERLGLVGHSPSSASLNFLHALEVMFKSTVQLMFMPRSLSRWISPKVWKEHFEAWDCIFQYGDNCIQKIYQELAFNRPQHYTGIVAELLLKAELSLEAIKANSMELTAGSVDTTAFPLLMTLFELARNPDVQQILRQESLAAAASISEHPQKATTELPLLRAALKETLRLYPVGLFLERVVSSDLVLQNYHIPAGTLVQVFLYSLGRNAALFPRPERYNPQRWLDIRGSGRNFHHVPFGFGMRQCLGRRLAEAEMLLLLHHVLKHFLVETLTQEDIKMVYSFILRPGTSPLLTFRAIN
Briefly: Inhibition of human aldosterone synthase expressed in chinese hamster V79 cells at 500 nM using 11-deoxycorticosterone as substrate. The settings on record: read-out: INH.

For series [2], the target named is T2, CYP11B1 (steroid-11beta-hydroxylase) (Homo sapiens, UniProt P15538).
T2 sequence (P15538 whole entry): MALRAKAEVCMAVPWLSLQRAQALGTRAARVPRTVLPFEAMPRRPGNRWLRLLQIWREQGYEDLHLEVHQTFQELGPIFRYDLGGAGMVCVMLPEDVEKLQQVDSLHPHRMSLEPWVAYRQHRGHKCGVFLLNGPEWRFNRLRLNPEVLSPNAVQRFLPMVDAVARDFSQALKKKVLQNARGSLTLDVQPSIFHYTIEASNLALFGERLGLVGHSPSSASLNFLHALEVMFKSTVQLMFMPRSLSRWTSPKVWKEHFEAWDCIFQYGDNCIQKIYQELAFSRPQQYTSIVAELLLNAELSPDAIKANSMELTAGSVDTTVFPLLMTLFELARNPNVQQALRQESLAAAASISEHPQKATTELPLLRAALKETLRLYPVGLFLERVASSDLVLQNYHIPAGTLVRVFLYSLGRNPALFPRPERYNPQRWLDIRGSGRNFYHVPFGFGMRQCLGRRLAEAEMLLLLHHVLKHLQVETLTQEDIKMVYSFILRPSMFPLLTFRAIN
Briefly: Inhibition of human steroid-11beta-hydroxylase expressed in chinese hamster V79 cells at 500 nM using 11-deoxycorticosterone as substrate.

SMILES strings stand for the structures.

For `O=C(Nc1cccnc1)c1cccc(F)c1`, the inhibition at 0.5 µM in series [1] was 47%; in series [2] it was 1%.
